For 42 sequences, binding signal results are on record in paper PMC7819943, “Rice protein-binding microarrays: a tool to detect cis-acting elements near promoter regions in rice”.

Protein sequences, listed by entry. Tags and fused reporters are not part of them.
UniProt Q0JBA9, entry or part of it: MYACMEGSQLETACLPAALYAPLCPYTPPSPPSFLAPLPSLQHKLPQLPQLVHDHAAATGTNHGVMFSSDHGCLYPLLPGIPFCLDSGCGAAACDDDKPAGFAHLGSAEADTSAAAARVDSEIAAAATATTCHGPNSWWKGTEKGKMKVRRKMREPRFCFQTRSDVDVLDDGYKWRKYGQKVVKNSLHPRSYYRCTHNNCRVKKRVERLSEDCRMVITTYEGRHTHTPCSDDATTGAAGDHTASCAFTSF

The list shows a part of the results.

The assay concerns the target OsWRKY34 (Oryza sativa, UniProt Q0JBA9 1-250). Nature of the assay: protein-binding microarray (RPBM); PBS, 2% BSA, 51.3 ng/ul salmon testes DNA, 50 uM zinc acetate, 200 nM TF, 25 C, 1 h; high values mean tight binding. The conditions noted are these: protein: recombinant; tags: N-terminal polyhistidine and DsRed monomer fusion (pET32a); label: CyDye5-dUTP incorporated in the synthesized complementary strand; 3' TTTTT single-stranded linker to array surface; dsDNA, one strand shown. The method, boiled down: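 Transcription factors, each fused N-terminally to a polyhistidine tag and DsRed, were expressed in E. coli BL21-CodonPlus and purified on Ni–NTA. A custom Agilent array was made double-stranded by primer extension with Cy5-dUTP and blocked with 2% BSA. It was incubated with 200 nM protein in PBS, 2% BSA, salmon testes DNA and 50 µM zinc acetate at 25 °C for 1 h, then washed. The binding signal is per-feature fluorescence intensity (arbitrary units) read on an Axon 4000B scanner.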
For the sequence “ATTAGCAATTTAGCTGCTCTTCTTGTTTTTTTTTCCTTAACGGAGTCACCTAGTGCAG”, the binding signal is 9790 fluorescence intensity (a.u.).
As to “GTCACATCAGTTTGGTATATGTAGAAGTGTAGTAAGAATCCGGAGTCACCTAGTGCAG”, the binding signal is 8610 fluorescence intensity (a.u.).
“AAGGGGAAGAGTGGAGGGAGTGGGAAGGGCGGCGACCGGCCGGAGTCACCTAGTGCAG”: the binding signal is 8570 fluorescence intensity (a.u.).
In the case of “TTTGTCATCAACTTTTTTGCATTTTGGTTGTGTCTTGTTCCGGAGTCACCTAGTGCAG”, the binding signal is 8120 fluorescence intensity (a.u.).
“GTGGTGCTTCATGCCTATCACTGCCCACGAAGACCAAGCCCGGAGTCACCTAGTGCAG”: the binding signal is 8040 fluorescence intensity (a.u.).
In the case of “CTCGAGCGCCGACTTCTCCGGGACGAAGTCCATGCGGCGCCGGAGTCACCTAGTGCAG”, the binding signal was 9020 fluorescence intensity (a.u.).
“CGACCGCGCCACACGCATCCCCACGCCACCCTAACCACACCGGAGTCACCTAGTGCAG”: the binding signal was 8620 fluorescence intensity (a.u.).
In the case of “GCCACCACGCTACGCTACACCACTTCACTTCACGCATCCGCGGAGTCACCTAGTGCAG”, the binding signal was 10200 fluorescence intensity (a.u.).
On to “AGAAATTAATTTCTCTCGGTATTTTCTTCTTTCTTCTCTCCGGAGTCACCTAGTGCAG”, for which the binding signal was 9170 fluorescence intensity (a.u.).
Take “GTTAGTTATCTTGGACATCTCCCTCCTAGACCTCATTTCGCGGAGTCACCTAGTGCAG”: the binding signal was 9700 fluorescence intensity (a.u.).
Consider “GAACGCGTAAGTGGAGTCAAACATTTCCTTTCCGCCAGACCGGAGTCACCTAGTGCAG”, for which the binding signal is 8070 fluorescence intensity (a.u.).
Turning to “ATAGTGGTATATGTGCGTATGATTGTTTCGTGTTTAAGAACGGAGTCACCTAGTGCAG”, the binding signal was 10600 fluorescence intensity (a.u.).
Regarding “ATATATTGTACTCCTCTATGTTCTATCTATTATATGCAATCGGAGTCACCTAGTGCAG”, the binding signal was 10700 fluorescence intensity (a.u.).
Regarding “TCTTTTTTTTTCGCCGGTTTTTATGGTTGTTTTCTTCGGTCGGAGTCACCTAGTGCAG”, the binding signal was 11600 fluorescence intensity (a.u.).
As to “TTCCTTTTTTTATGCAACTTTGACAAGCCTAATAGATATACGGAGTCACCTAGTGCAG”, the binding signal is 8500 fluorescence intensity (a.u.).
For the sequence “AATTCTTTCTCCATTTCTTGAACCGAACTACTCCAGTCTACGGAGTCACCTAGTGCAG”, the binding signal was 8600 fluorescence intensity (a.u.).
The same measure for “CGCCTCGCCGTCCCCACCCATAGCCGATCCTGTGCCACTCCGGAGTCACCTAGTGCAG”: 8100 fluorescence intensity (a.u.); for “CTACTCCCTTCGTTTCAGGTTATAAGACGTTTTGACTTTGCGGAGTCACCTAGTGCAG”: 9610 fluorescence intensity (a.u.).
Turning to “GACGTAGTCGTGCGCTCATCATCTCGCTTACGCTCTCACGCGGAGTCACCTAGTGCAG”, the binding signal was 10900 fluorescence intensity (a.u.).
For the sequence “TCTGACAGATATATCCATCAATCAGTCCCGTCCGTGCCCGCGGAGTCACCTAGTGCAG”, the binding signal was 8500 fluorescence intensity (a.u.).
The same measure for “GTTGTTCCTTTTTTTTGGGCACAGTTAAGCATGGCCAAGACGGAGTCACCTAGTGCAG”: 9550 fluorescence intensity (a.u.); for “CACCACCGTCTCCACCACCACCTCCGGCCCACCTCCTCCTCGGAGTCACCTAGTGCAG”: 8220 fluorescence intensity (a.u.); for “CCCATCCATAATCTTGGAGTAATTCGCGAGACGAATCTATCGGAGTCACCTAGTGCAG”: 8110 fluorescence intensity (a.u.).
In the case of “TATTTTTTTATATTTAATTCATTTTATATGTGCCTTTGAACGGAGTCACCTAGTGCAG”, the binding signal was 8130 fluorescence intensity (a.u.).
In the case of “CCGGTCCGCCGCCATCCCGCCGTCTCTCTCCCCACCACCGCGGAGTCACCTAGTGCAG”, the binding signal is 9340 fluorescence intensity (a.u.).
In the case of “TTACATTGCTAATTCTTATTTCACTGGCCTTAATATATAACGGAGTCACCTAGTGCAG” it was 10100 fluorescence intensity (a.u.).
For the sequence “GTAGTTTTTTTCCTAGTTTCAGTTTTTGTTTTGCTTTTTTCGGAGTCACCTAGTGCAG”, the binding signal is 11200 fluorescence intensity (a.u.).
The same measure for “AATTTTTGCTCTCATTACCAATAGTGCTCACCACCGACTCCGGAGTCACCTAGTGCAG”: 8590 fluorescence intensity (a.u.); for “AATTCATCATCGGCAACTTTTATCCATGGTGTTTAACAATCGGAGTCACCTAGTGCAG”: 8110 fluorescence intensity (a.u.).
As to “ACTCTTTCACGTCACAACACTTTCACGTCCTTTGGTTAGTCGGAGTCACCTAGTGCAG”, the binding signal is 9520 fluorescence intensity (a.u.).
In the case of “TGTTCTTGTTTGTGTTTTCTTCTTCGTCTCCGGCGACGGCCGGAGTCACCTAGTGCAG”, the binding signal was 10000 fluorescence intensity (a.u.).
For “CAACTATCTTCTTATTTTATTCTTGGTTCTTGTGTAGAGACGGAGTCACCTAGTGCAG”, the binding signal was 8370 fluorescence intensity (a.u.).
On to “GCTTCATCCGTCTTAAAATAAACCAACCACGTATCGGATACGGAGTCACCTAGTGCAG”, for which the binding signal is 8100 fluorescence intensity (a.u.).
As for “AAGCAGCAGGTCACTTTCTTCCCTTCATTTCCTTAATTAACGGAGTCACCTAGTGCAG”, the binding signal was 8220 fluorescence intensity (a.u.).
The same measure for “ATCTTGCACTTTAGTCCTTCGTGTCAGGACGATATTTCATCGGAGTCACCTAGTGCAG”: 8192 fluorescence intensity (a.u.); for “TAGCCCAAAAGTTGTGTTCATTCTCGTTACAGTCTTACAGCGGAGTCACCTAGTGCAG”: 9480 fluorescence intensity (a.u.); for “AAACGATTTGTGCCTACTCTACTTTCTTATCTAGGACTTCCGGAGTCACCTAGTGCAG”: 9580 fluorescence intensity (a.u.).
As for “TCCGTAATATGATACATGTATACCACTTCCTCGCATTTTGCGGAGTCACCTAGTGCAG”, the binding signal was 9680 fluorescence intensity (a.u.).
As to “CAAACCAACATTTATCTTTCTTTTTTATATATGTTTTTTTCGGAGTCACCTAGTGCAG”, the binding signal is 9790 fluorescence intensity (a.u.).
For the sequence “GACTCCCTATATCTGGTATTGCGGTTTGAAGACAAATTTGCGGAGTCACCTAGTGCAG”, the binding signal is 8690 fluorescence intensity (a.u.).
In the case of “CACACTCTATCTTCTCTTTCTCTTCTCCTCGCGACTCCGCCGGAGTCACCTAGTGCAG” it was 11100 fluorescence intensity (a.u.).
As to “CGCCGCCGCCGTCCATCGCCGCCGCCGTCGCCGCTGCCGTCGGAGTCACCTAGTGCAG”, the binding signal is 8020 fluorescence intensity (a.u.).
